Measurements as given in patent US10047122B2 (The United States of America, as represented by the …, priority 2013, dated 2018).

Experiment: general procedure: Fmoc solid-phase peptide synthesis; NovaSyn TG Sieber resin; HBTU/HOBT/DIPEA
Conditions: whole synthesis

Substance	final HPLC purity (HPLC-MS, scale of the general procedure 0.1 mmol)	final LC-MS purity (HPLC, scale 0.1 mmol)
PEPTIDE1{[ac].P.L.H.S.[Pmab(POM)2].[am]}$$$$V2.0	>99%	
PEPTIDE1{[ac].P.L.H.S.[Thr(PO3POM2)].[am]}$$$$V2.0		>99%

HELM strings list residues between dots; [ac] is acetyl, [am] amide, other brackets name non-standard units.
